Assay results published in PMC3083433.

Target: T1, tissue transglutaminase (tTG) (UniProt P21980)
T1 sequence: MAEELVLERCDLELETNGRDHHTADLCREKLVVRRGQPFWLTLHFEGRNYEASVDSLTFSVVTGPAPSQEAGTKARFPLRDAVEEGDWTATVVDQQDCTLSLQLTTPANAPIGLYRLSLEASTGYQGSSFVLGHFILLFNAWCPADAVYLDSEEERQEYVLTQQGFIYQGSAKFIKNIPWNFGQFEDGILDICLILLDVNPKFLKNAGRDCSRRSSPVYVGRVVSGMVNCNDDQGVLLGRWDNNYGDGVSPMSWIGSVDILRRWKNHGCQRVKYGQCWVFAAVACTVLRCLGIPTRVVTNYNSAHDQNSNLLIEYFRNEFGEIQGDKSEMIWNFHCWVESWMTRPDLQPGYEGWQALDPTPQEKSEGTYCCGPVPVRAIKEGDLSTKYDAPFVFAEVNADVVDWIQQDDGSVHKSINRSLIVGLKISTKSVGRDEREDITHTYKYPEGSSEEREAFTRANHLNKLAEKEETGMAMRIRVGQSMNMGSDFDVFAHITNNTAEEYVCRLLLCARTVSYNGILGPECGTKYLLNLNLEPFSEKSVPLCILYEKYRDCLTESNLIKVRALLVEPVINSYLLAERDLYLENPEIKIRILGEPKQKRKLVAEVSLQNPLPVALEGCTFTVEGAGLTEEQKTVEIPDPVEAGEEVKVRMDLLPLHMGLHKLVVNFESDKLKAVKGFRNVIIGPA
Experiment: co-IP; fractions of internalized, recycled and retained proteins as in Fig. 5E; 4G3-Fab against tTG bound to cell surfaces at 4°C; surface tTG and associated proteins immunoprecipitated from lysates; probed for α5 and β1 integrins and with neutravidin-peroxidase

Substance: α5β1 integrin (mouse (endogenous in NIH3T3)) (complex)
- binding: binds

Results are given in words; binding and its absence hold for the method and conditions named. Binding seen in cells or lysates may run through a third protein. Binding can be weak; no strength is given.
